The values below come from article PMC9044575.

By UniProt entry, the sequences of proteins in these tests, tags left out. Where a name states a change or a piece, a line headed by the entry shows the natural chain unless it says otherwise.
UniProt Q9QUM9: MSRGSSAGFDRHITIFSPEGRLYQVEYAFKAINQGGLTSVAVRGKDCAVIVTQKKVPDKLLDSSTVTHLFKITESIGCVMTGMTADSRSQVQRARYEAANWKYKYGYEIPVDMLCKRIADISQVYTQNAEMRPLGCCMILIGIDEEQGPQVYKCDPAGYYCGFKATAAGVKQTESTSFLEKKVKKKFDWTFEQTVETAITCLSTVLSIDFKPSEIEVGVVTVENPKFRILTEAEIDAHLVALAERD
UniProt Q9Z2U0: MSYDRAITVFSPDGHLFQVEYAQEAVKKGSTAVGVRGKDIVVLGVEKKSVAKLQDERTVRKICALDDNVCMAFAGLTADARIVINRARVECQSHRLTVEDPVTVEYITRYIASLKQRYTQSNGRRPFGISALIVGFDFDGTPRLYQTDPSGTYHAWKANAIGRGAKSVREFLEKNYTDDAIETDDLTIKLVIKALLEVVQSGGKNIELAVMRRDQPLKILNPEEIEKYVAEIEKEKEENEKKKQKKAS
UniProt Q9Z2U1: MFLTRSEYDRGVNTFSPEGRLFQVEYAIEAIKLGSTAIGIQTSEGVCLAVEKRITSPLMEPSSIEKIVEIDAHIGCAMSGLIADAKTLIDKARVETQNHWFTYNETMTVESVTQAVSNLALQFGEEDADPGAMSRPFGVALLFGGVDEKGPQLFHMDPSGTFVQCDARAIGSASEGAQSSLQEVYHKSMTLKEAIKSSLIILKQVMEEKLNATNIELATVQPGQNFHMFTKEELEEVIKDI
UniProt Q9R1P4: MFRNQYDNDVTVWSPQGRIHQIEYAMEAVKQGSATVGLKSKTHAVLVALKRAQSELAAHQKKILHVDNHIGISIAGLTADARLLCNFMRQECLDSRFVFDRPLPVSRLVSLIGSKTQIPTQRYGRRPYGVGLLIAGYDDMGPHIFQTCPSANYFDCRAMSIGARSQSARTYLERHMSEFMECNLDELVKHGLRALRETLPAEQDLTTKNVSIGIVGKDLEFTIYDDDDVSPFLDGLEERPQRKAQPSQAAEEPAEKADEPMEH
UniProt O09061: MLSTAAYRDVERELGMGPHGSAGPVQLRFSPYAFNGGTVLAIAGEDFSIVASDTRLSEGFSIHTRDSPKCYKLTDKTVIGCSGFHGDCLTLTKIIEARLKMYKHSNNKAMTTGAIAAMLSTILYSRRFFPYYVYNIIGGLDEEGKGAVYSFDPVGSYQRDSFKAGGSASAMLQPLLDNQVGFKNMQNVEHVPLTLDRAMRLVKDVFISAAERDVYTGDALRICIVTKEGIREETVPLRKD
UniProt O88685: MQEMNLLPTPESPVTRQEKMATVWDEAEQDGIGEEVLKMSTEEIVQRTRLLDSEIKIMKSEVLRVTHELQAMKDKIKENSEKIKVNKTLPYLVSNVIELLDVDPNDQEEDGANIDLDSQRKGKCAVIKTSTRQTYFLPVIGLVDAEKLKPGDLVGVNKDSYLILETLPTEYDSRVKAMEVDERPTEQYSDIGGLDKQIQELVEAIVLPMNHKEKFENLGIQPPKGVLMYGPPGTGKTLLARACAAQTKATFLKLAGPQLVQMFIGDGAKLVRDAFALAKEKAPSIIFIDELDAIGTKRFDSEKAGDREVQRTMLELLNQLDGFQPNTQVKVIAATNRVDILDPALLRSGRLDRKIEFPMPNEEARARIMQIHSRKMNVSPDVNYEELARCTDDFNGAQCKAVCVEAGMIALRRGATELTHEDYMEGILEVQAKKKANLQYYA

No constants are given. Whether binding was seen depends on the method and setting. Binding seen in cells or lysates may run through a third protein. Here binding means that the protein was enriched with, or labelled near, the bait; the list need not be complete.

In this experiment the target is T1, Developmental pluripotency-associated 3 (mouse (endogenous in mouse ES cells)) (UniProt Q8QZY3).
T1 sequence: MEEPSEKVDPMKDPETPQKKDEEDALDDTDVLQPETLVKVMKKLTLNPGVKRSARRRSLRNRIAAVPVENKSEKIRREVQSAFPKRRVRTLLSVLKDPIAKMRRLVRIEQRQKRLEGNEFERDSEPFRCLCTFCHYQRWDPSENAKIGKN
Briefly: affinity purification with mass spectrometry; IP-MS from mouse ES cell lysate; enriched by anti-Dppa3 antibody (results, legend); methods: IP buffer 50 mM Tris pH 7.4, 150 mM NaCl, 1% Triton X100, anti-FLAG M2 affinity gel at 4 °C, washes with 500 mM NaCl, elution with FLAG peptide, LC-MS/MS.

With “proteasome α1 subunit (from UniProt Q9QUM9 1-246)”, the binding entry is recorded as “binds”. The value for “proteasome α4 subunit (from UniProt Q9Z2U0 1-248)” was “binds”. The value for “proteasome α5 subunit (from UniProt Q9Z2U1 1-241)” was “binds”. For the molecule “proteasome α6 subunit (from UniProt Q9R1P4 1-263)”, the binding result is recorded as “binds”. As for “proteasome β6 subunit (from UniProt O09061)”, the binding entry is recorded as “binds”.

For “regulatory particle triple-ATPase Rpt5 (from UniProt O88685 1-442)”, the binding entry is recorded as “binds”.

B1: proteasome α2 subunit (protein, UniProt P49722 1-234)
chain: MAERGYSFSLTTFSPSGKLVQIEYALAAVAGGAPSVGIKAANGVVLATEKKQKSILYDERSVHKVEPITKHIGLVYSGMGPDYRVLVHRARKLAQQYYLVYQEPIPTAQLVQRVASVMQEYTQSGGVRPFGVSLLICGWNEGRPYLFQSDPSGAYFAWKATAMGKNYVNGKTFLEKRYNEDLELEDAIHTAILTLKESFEGQMTEDNIEVGICNEAGFRRLTPTEVRDYLAAIA
With B1, the binding result is “binds”.

B2: Psmd7 (protein, UniProt P26516 1-321)
chain: MPELAVQKVVVHPLVLLSVVDHFNRIGKVGNQKRVVGVLLGSWQKKVLDVSNSFAVPFDEDDKDDSVWFLDHDYLENMYGMFKKVNARERIVGWYHTGPKLHKNDIAINELMKRYCPNSVLVIIDVKPKDLGLPTEAYISVEEVHDDGTPTSKTFEHVTSEIGAEEAEEVGVEHLLRDIKDTTVGTLSQRITNQVHGLKGLNSKLLDIRSYLEKVASGKLPINHQIIYQLQDVFNLLPDASLQEFVKAFYLKTNDQMVVVYLASLIRSVVALHNLINNKIANRDAEKKEGQEKEESKKERKDDKEKEKSDAAKKEEKKEKK
Take B2: the binding result is “binds”.

B3: Nsflc (protein, UniProt Q9CZ44 1-370)
chain: MAEERQDALREFVAVTGTEEDRARFFLESAGWDLQIALASFYEDGGDEDIVTISQATPSSVSRGTAPSDNRVTSFRDLIHDQDEEEEEEEGQRFYAGGSERSGQQIVGPPRKKSPNELVDDLFKGAKEHGAVAVERVTKSPGETSKPRPFAGGGYRLGAAPEEESAYVAGERRRHSGQDVHVVLKLWKTGFSLDNGDLRSYQDPSNAQFLESIRRGEVPAELRRLAHGGQVNLDMEDHRDEDFVKPKGAFKAFTGEGQKLGSTAPQVLNTSSPAQQAENEAKASSSILINEAEPTTNIQIRLADGGRLVQKFNHSHRISDIRLFIVDARPAMAATSFVLMTTFPNKELADENQTLKEANLLNAVIVQRLT
Consider B3, for which the binding result is reported as “binds”.

B4: proteasome α7 subunit (protein, UniProt O70435 1-255)
chain: MSSIGTGYDLSASTFSPDGRVFQVEYAMKAVENSSTAIGIRCKDGVVFGVEKLVLSKLYEEGSNKRLFNVDRHVGMAVAGLLADARSLADIAREEASNFRSNFGYNIPLKHLADRVAMYVHAYTLYSAVRPFGCSFMLGSYSANDGAQLYMIDPSGVSYGYWGCAIGKARQAAKTEIEKLQMKEMTCRDVVKEVAKIIYIVHDEVKDKAFELELSWVGELTKGRHEIVPKDIREEAEKYAKESLKEEDESDDDNM
B4: the binding entry was “binds”.
